The values below come from paper PMC11844899.

Protein sequences, listed by entry. Tags and fused reporters are not part of them.
UniProt Q9QZL0: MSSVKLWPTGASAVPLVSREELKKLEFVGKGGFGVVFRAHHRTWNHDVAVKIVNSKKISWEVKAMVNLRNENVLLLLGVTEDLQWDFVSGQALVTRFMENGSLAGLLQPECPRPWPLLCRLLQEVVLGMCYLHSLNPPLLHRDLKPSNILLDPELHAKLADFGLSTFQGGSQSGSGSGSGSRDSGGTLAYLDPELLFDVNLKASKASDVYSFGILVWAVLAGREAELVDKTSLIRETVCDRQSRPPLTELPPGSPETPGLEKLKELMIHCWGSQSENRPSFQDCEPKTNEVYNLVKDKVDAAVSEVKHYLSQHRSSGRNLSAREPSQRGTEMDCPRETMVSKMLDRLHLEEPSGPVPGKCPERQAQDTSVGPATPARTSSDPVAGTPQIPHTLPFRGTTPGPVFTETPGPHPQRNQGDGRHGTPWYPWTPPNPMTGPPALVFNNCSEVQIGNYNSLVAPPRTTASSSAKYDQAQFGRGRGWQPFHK
UniProt Q9Y572: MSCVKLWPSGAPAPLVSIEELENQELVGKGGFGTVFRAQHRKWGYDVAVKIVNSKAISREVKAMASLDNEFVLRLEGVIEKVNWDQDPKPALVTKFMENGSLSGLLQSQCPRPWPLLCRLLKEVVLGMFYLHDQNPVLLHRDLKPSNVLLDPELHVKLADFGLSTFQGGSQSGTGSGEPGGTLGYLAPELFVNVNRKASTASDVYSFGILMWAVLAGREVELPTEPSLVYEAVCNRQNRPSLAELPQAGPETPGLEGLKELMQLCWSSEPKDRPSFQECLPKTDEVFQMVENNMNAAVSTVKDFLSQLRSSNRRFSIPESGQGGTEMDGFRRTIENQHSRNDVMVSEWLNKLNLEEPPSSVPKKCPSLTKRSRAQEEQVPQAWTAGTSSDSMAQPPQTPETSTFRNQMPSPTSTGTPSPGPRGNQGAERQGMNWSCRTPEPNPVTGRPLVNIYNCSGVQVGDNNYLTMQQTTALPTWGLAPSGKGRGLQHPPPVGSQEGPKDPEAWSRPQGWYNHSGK
UniProt Q13546: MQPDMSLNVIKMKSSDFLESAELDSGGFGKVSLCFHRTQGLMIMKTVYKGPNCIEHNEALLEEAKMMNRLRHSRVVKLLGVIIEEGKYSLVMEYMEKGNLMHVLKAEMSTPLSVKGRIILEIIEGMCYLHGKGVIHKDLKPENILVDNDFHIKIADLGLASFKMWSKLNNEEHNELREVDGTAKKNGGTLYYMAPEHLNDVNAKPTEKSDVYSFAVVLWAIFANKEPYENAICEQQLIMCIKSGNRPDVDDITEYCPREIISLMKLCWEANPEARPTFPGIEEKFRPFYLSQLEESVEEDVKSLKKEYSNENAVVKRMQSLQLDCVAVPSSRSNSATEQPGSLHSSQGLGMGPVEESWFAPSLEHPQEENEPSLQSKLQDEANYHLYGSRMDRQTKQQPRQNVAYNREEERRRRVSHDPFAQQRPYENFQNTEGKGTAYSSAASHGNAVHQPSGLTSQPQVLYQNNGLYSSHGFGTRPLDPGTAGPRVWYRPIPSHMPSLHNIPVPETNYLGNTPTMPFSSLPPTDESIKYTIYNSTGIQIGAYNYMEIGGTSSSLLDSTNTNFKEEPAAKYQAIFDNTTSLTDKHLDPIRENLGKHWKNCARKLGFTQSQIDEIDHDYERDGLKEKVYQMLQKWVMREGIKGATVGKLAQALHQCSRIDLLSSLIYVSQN

Holding throughout (assay): co-IP
For experiment [1], the target named is T1, FLAG-tagged human ZBP1 (Flag-hZBP1) (human) (UniProt Q9H171).
T1 sequence: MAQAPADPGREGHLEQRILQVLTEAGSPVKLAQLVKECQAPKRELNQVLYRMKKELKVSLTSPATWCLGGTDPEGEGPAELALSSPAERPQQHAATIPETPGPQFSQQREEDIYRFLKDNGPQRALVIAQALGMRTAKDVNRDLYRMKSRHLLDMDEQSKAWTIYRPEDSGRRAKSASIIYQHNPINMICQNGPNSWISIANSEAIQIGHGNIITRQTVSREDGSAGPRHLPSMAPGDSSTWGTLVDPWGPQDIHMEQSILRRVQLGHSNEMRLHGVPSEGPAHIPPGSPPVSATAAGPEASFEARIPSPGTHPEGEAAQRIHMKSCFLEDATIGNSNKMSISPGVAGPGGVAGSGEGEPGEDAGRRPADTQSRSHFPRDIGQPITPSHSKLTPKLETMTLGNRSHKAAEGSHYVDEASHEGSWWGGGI

The target of experiment [2] is T2, FLAG-tagged human ZBP1 mutant RHIM B (tetra-Ala substitution of amino acids 264-267) (human) (UniProt Q9H171).
T2 sequence: T1 sequence with V264A, Q265A, L266A, G267A

Experiment [3] has as its target T3, FLAG-tagged human ZBP1 mutant Zα1 (N46D/Y50A) (human) (UniProt Q9H171).
T3 sequence: T1 sequence with N46D, Y50A

The target in experiment [4] is T4, Flag-mZBP1 expressed in MEFs (mouse) (UniProt Q9QY24).
T4 sequence: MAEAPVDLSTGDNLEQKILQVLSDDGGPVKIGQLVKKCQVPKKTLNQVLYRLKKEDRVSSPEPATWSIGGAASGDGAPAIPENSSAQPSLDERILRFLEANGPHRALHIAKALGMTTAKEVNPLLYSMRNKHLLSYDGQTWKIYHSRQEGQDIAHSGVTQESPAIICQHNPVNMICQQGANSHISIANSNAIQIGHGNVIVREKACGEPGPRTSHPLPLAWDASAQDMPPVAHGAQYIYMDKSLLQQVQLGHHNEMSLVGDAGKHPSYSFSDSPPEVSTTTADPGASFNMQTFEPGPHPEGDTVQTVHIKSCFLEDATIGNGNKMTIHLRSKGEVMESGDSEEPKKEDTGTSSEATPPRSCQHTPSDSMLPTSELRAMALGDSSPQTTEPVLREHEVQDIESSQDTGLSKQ

Where a chain is given by its changes, count along the chain named. These are yes or no findings as the source states them, for the method shown. Binding seen in cells or lysates may run through a third protein. Some results given as binding are weak or reduced against the parent protein; the word gives no strength. Sequences can lack the tags named with a protein.

On to “mouse RIPK3 (mRIPK3) reconstituted in HT29-hZBP1 (RIPK3 KO) cells (from UniProt Q9QZL0 1-486)”, for which, in experiment [1], the binding result was “binds”.

On to “RIPK3 (endogenous, human cells) (from UniProt Q9Y572 1-518)”, for which the binding result in experiment [2] and in experiment [3] was “binds” throughout.

“RIPK3 (endogenous, mouse cells) (from UniProt Q9QZL0 1-486)”: the binding result in experiment [4] is given as “binds”.

As to “RIPK1 (endogenous, human cells) (from UniProt Q13546 1-671)”, the binding result in experiment [2] and in experiment [3] was “binds” throughout.
